These are yes or no findings as the source states them, for the method shown. Some entries that bind do so weakly or less than the wild type.
Tests used:
[1] = molecular target: Cys2 SP1 variant (aspen (Populus tremula)); assay: disulfide-linked dimer, SDS-PAGE with or without β-mercaptoethanol
[2] = molecular target: Cys2 SP1 variant (aspen (Populus tremula)); assay: homo-oligomer complex formation, SDS-PAGE of unboiled samples
[3] = molecular target: Cys2 SP1 variant (aspen (Populus tremula)); assay: disulfide-linked subunits within the oligomer, SDS-PAGE
[4] = molecular target: Cys2 SP1 variant (aspen (Populus tremula)); assay: oligomer formation, SDS-PAGE

binding [1]: binds
binding [2]: binds
binding [3]: binds
binding [4]: binds
B1: Cys2 SP1 variant (protein)
chain: MCATRTPKLVKHTLLTRFKDEITREQIDNYINDYTNLLDLIPSMKSFNWGTDLGMESAELNRGYTHAFESTFESKSGLQEYLDSAALAAFAEGFLPTLSQRLVIDYFLY
